# Measured values as given in US20080227694A1.
# B1: FLAG-tagged ZNF216 (recombinant ZNF216 with N-terminal FLAG recognition sequence, expressed in HEK293T cells) (protein)
# chain: MDYKDDDDKAQETNQTPGPMLCSTGCGFYGNPRTNGMCSVCYKEHLQRQQNSGRMSPMGTASGSNSPTSDSASVQRADTSLNNCEGAAGSTSEKSRNVPVAALPVTQQMTEMSISREDKITTPKTEVSEPVVTQPSPSVSQPSTSQSEEKAPELPKPKKNRCFMCRKKVGLTGFDCRCGNLFCGLHRYSDKHNCPYDYKAEAAAKIRKENPVVVAEKIQRI
# B2: FLAG-tagged AWP1 (recombinant AWP1 with N-terminal FLAG recognition sequence, expressed in HEK293T cells) (protein)
# chain: MDYKDDDDKAQETNHSQVPMLCSTGCGFYGNPRTNGMCSVCYKEHLQRQNSSNGRISPPATSVSSLSESLPVQCTDGSVPEAQSALDSTSSSMQPSPVSNQSLLSESVASSQLDSTSVDKAVPETEDVQASVSDTAQQPSEEQSKSLEKPKQKKNRCFMCRKKVGLTGFECRCGNVYCGVHRYSDVHNCSYNYKADAAEKIRKENPVVVGEKIQKI
# Target: proteasome (protein group which composes the proteasome)
# Experiment: anti-FLAG immunoprecipitation from transfected HEK293T cells, partner identified by tandem mass spectrometry
row,Binder,binding
1,B1,binds
2,B2,binds

# These are yes or no findings as the source states them, for the method shown. In cells and extracts the contact can be indirect. A yes stands for co-enrichment or nearness to the bait. Other partners may have been found. Tags and fused reporters may be left off the sequences shown.
